The supplement of paper PMC4604168 (melanoma cell lines)
The other results are listed elsewhere or left out. Many values rest on one well or one pass, so single values are uncertain.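 The apoptosis fraction was the count of cleaved-PARP antibody-stained nuclei relative to all DNA-stained nuclei, imaged in 1,536-well plates. Screening doses were set so most cells survived, and baseline and induced cleaved-PARP levels vary greatly across cell lines.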

Key:
Assay in all cases: cleaved PARP positive nuclei fraction relative to DMSO control; melanoma cells; higher = more apoptosis
Settings in all cases: library dose: low library concentration; 72 h
501Mel = test system: 501Mel
A101D = test system: A101D
A2058 = test system: A2058
A375 = test system: A375
C32 = test system: C32
CBRC008 = test system: CBRC008 (line from a melanoma biopsy)
CBRC014 = test system: CBRC014 (line from a melanoma biopsy)
CBRC016 = test system: CBRC016 (line from a melanoma biopsy)
CBRC017 = test system: CBRC017 (line from a melanoma biopsy)
CBRC034 = test system: CBRC034 (line from a melanoma biopsy)
COLO792 = test system: COLO792
COLO800 = test system: COLO800
COLO829 = test system: COLO829
G361 = test system: G361
IPC-298 = test system: IPC-298
IST-MEL1 = test system: IST-MEL1
LB2518-MEL = test system: LB2518-MEL
LOXIMVI = test system: LOXIMVI
MEL-HO = test system: MEL-HO

| SMILES | cleaved PARP positive nuclei fraction (501Mel) | cleaved PARP positive nuclei fraction (A101D) | cleaved PARP positive nuclei fraction (A2058) | cleaved PARP positive nuclei fraction (A375) | cleaved PARP positive nuclei fraction (C32) | cleaved PARP positive nuclei fraction (CBRC008) | cleaved PARP positive nuclei fraction (CBRC014) | cleaved PARP positive nuclei fraction (CBRC016) | cleaved PARP positive nuclei fraction (CBRC017) | cleaved PARP positive nuclei fraction (CBRC034) | cleaved PARP positive nuclei fraction (COLO792) | cleaved PARP positive nuclei fraction (COLO800) | cleaved PARP positive nuclei fraction (COLO829) | cleaved PARP positive nuclei fraction (G361) | cleaved PARP positive nuclei fraction (IPC-298) | cleaved PARP positive nuclei fraction (IST-MEL1) | cleaved PARP positive nuclei fraction (LB2518-MEL) | cleaved PARP positive nuclei fraction (LOXIMVI) | cleaved PARP positive nuclei fraction (MEL-HO) |
| --- | --- | --- | --- | --- | --- | --- | --- | --- | --- | --- | --- | --- | --- | --- | --- | --- | --- | --- | --- |
| O=C(O)[C@@H]1[O][Sb](=[O])([O][Sb]2(=[O])[O][C@H]([C@H](O)CO)[C@H](O)[C@H](C(=O)O)[O]2)[O][C@H]([C@H](O)CO)[C@@H]1O (some centres not stated) [stibogluconate] + Nc1cccc2c1CN(C1CCC(=O)NC1=O)C2=O [lenalidomide] (first compound 2 µM, partner dose 1 µM) | 68.2% | 142% | 101% | 238% | 88.2% | 178% | 92.4% | 115% | 85.1% | 247% | 155% | 56.6% | 158% | 120% | 89% | 56.1% | 71% | 76.6% | 72.6% |
| Cn1c(=O)n(-c2ccc(C(C)(C)C#N)cc2)c2c3cc(-c4cnc5ccccc5c4)ccc3ncc21 + COCC[n+]1c2c(n(Cc3cnccn3)c1C)C(=O)c1ccccc1C2=O [YM155] (first compound 0.004 µM, partner dose 0.0004 µM) | 137% | 113% | 80.4% | 247% | 91.6% | 708% | 88.2% | 133% | 158% | 114% | 128% | 150% | 26.7% | 139% | 225% | 145% | 252% | 207% | 33.2% |
| CCCS(=O)(=O)Nc1ccc(F)c(C(=O)c2c[nH]c3ncc(Cl)cc23)c1F + CC(=O)c1c(C)c2cnc(Nc3ccc(N4CCNCC4)cn3)nc2n(C2CCCC2)c1=O [palbociclib] (first compound 0.08 µM, partner dose 0.04 µM) | 256% | 55.8% | 39.5% | 599% | 98.9% | 126% | 109% | 153% | 115% | 63.8% | 111% | 59.6% | 68% | 203% | 108% | 152% | 136% | 164% | 125% |
| CNC(=O)c1cc(Oc2ccc(NC(=O)Nc3ccc(Cl)c(C(F)(F)F)c3)cc2)ccn1 [sorafenib] + Nc1ncn([C@H]2C[C@H](O)[C@@H](CO)O2)c(=O)n1 [decitabine] (first compound 0.4 µM, partner dose 0.1 µM) | 80.8% | 103% | 84% | 40% | 79.7% | 33.5% | 82.6% | 145% | 86.8% | 54.6% | 54.9% | 59.3% | 66.2% | 47.7% | 63.7% | 151% | 57.2% | 122% | 111% |
| Nc1nc(F)nc2c1ncn2[C@@H]1O[C@H](CO)[C@@H](O)[C@@H]1O [fludarabine] + COc1ccc(Cl)c(Nc2nc3ccccc3nc2NS(=O)(=O)c2cccc(NC(=O)C(C)(C)N)c2)c1 [XL147] (first compound 0.2 µM, partner dose 0.8 µM) | 12800% | 55.2% | 166% | 5470% | 71.6% | 97.3% | 113% | 166% | 111% | 46.1% | 51.6% | 78.6% | 109% | 52.6% | 91.8% | 229% | 25.8% | 97.8% | 36.5% |
| CN1CCN(c2ccc3nc(-c4c(N)c5c(F)cccc5[nH]c4=O)[nH]c3c2)CC1 [Dovitinib] + O=C(O)c1ccc2c(c1)nc(Nc1cccc(Cl)c1)c1ccncc12 [CX4945] (first compound 0.1 µM, partner dose 0.4 µM) | 96.2% | 48.7% | 203% | 229% | 84.1% | 77.5% | 102% | 95% | 138% | 191% | 197% | 127% | 123% | 171% | 94.3% | 104% | 358% | 155% | 116% |
| C=C(c1ccc(C(=O)O)cc1)c1cc2c(cc1C)C(C)(C)CCC2(C)C [Bexarotene] + C=CCNC1=C2C[C@@H](C)C[C@H](OC)[C@H](O)[C@@H](C)/C=C(\C)[C@H](OC(N)=O)[C@@H](OC)/C=C\C=C(/C)C(=O)NC(=CC1=O)C2=O [Tanespimycin] (first compound 2 µM, partner dose 0.002 µM) | 75.3% | 109% | 101% | 64.2% | 71.7% | 219% | 115% | 136% | 120% | 68.7% | 133% | 81.3% | 100% | 126% | 89.2% | 65.4% | 175% | 44.8% | 111% |
| C=C(c1ccc(C(=O)O)cc1)c1cc2c(cc1C)C(C)(C)CCC2(C)C [Bexarotene] + Clc1ccc(Nc2nnc(Cc3ccncc3)c3ccccc23)cc1 [vatalanib] (first compound 2 µM, partner dose 2 µM) | 61.9% | 42% | 31.9% | 94.4% | 138% | 393% | 130% | 249% | 455% | 72.1% | 111% | 128% | 54% | 126% | 45.7% | 136% | 98.8% | 143% | 136% |
